Residue numbers refer to the chain shown, from its start. Where two headings read alike, the source gives them in different places. No constants are given. Whether binding was seen depends on the method and setting. Binding seen in cells or lysates may run through a third protein. Some entries that bind do so weakly or less than the wild type. For some of these results: Where a sequence is shown, tags or fusion partners need not be part of it.

Protein sequences, listed by entry. Tags and fused reporters are not part of them.
UniProt Q9WTX6: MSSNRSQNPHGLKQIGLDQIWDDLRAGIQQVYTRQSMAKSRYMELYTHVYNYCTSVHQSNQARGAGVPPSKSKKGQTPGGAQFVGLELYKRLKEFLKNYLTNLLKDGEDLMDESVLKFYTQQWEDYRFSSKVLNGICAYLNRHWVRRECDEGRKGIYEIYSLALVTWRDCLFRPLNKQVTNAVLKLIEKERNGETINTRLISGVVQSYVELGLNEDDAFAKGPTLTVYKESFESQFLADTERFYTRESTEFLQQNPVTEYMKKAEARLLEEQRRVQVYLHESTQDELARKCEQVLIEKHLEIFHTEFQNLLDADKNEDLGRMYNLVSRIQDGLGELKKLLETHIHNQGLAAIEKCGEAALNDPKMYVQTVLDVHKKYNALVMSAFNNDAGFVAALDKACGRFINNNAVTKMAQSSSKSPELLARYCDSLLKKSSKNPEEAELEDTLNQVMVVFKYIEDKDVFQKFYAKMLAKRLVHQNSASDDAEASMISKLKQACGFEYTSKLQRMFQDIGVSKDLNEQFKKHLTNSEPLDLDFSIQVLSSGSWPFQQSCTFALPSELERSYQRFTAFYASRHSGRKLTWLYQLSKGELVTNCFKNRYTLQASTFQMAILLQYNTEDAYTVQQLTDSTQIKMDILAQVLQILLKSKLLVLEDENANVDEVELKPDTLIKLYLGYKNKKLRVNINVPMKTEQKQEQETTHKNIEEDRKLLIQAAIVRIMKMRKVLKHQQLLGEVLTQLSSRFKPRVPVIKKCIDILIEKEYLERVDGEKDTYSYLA
UniProt P49841: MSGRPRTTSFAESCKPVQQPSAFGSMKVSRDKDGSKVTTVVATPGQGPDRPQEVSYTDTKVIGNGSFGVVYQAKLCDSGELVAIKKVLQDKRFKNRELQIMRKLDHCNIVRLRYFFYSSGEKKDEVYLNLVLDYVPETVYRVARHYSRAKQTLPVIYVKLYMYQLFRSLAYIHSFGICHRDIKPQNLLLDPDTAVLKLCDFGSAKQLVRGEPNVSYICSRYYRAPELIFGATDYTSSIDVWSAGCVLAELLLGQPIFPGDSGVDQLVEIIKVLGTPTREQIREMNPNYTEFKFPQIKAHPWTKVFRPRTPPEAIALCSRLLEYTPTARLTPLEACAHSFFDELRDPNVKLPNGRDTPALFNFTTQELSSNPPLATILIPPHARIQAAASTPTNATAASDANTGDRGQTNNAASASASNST

The record followed here is paper PMC8299398.

Test [1] addresses T1, VenN-FBXL21T33A (UniProt Q8BFZ4).
T1 sequence: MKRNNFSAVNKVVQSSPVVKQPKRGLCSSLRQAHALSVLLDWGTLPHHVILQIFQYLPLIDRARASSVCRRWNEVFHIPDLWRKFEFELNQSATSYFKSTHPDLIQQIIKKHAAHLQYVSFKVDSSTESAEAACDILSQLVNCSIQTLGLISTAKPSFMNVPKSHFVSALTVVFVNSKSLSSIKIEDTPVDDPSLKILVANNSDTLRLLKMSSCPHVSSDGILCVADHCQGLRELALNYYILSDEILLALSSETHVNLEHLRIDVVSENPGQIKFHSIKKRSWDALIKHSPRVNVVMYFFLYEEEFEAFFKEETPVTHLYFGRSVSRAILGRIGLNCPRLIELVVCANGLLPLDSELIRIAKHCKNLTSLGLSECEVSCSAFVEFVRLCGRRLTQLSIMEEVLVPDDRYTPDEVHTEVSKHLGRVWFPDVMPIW
The experiment in a line: split reporter; BiFC with Venus N- and C-terminal fragments in transfected 293T cells, fixed 2 days after transfection, Venus emission 528 nm; with scramble shRNA or GSK-3β shRNA co-transfection.

Test [2] deals with T2, VenN-FBXL21 (Venus N terminus fused with Fbxl21) (UniProt Q8BFZ4).
T2 sequence: T1 sequence with A33T
The test is described as above.

Test [3] deals with T3, FLAG-FBXL21 (UniProt Q8BFZ4).
T3 sequence: T1 sequence with A33T
The experiment in a line: co-IP; 293T cells co-transfected with FLAG- and HA-tagged constructs; immunoprecipitation with anti-FLAG antibody (M2 agarose beads).

For test [4], the target named is T4, FLAG-TCAP (UniProt O70548).
T4 sequence: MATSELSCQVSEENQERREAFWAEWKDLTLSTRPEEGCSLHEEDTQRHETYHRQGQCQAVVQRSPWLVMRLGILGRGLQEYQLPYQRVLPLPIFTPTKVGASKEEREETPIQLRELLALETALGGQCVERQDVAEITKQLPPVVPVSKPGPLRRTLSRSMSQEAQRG
The description is as above.

Test [5] addresses T3, FLAG-FBXL21. Described as above. This is another data set of the same source.
In test [6] the target is T5, FBXL21 (endogenous, mouse gastrocnemius muscle) (mouse (endogenous in gastrocnemius muscle)) (UniProt Q8BFZ4).
T5 sequence: T1 sequence with A33T
The experiment in a line: co-IP; gastrocnemius muscles of wild-type C57BL/6 mice collected every 4 h over one 12 h:12 h light:dark cycle.

“VenC-Cullin1 (from UniProt Q9WTX6 1-776)”: the binding result in test [1] and in test [2] was “binds” each time.

With “HA-GSK-3β (from UniProt P49841 1-420) (enzyme)”, the binding entry in test [3] and in test [4] was “binds” each time.

B1: VenC-TCAP (Venus C terminus fused with TCAP) (protein, UniProt O70548 1-167)
chain: T4 sequence
For B1, in test [2], the binding result is recorded as “binds”.

B2: hemagglutinin (HA)-TCAP (protein, UniProt O70548 1-167)
chain: T4 sequence
As for B2, the binding entry in test [5] is given as “binds”.

B3: TCAP (endogenous, mouse gastrocnemius muscle) (protein, UniProt O70548 1-167)
chain: T4 sequence
Turning to B3, the binding entry in test [6] is recorded as “binds”.
